{
  "source": "PubChem BioAssay AID504648",
  "about": "(National Center for Advancing Translational Sciences (NCATS), 2011)",
  "note": "Screen size: about 390,000 compounds; about 610 (0.16%) were called active. This list was built around the results that the source calls inconclusive (neither active nor inactive); the mix of calls is not that of the screen. The call rests on the fitted dose curve; in most records, active means well fitted inhibition curve with a large enough effect; inconclusive means small, poorly fitted or top-dose-only effect, or effect the other way, or another doubt; inactive means no such curve, though single readings can be large or run the other way. Where the call is inconclusive, the potency comes from a doubtful curve fit. On the % scale 0 is the no-effect control and ±100 the full control effect; potency means the concentration at half of the fitted maximal effect.",
  "data": [
    {"experiment": "Nrf2 qHTS screen for inhibitors: counterscreen for cytotoxicity", "settings": "A549 ARE-Fluc cells, CellTiter-Fluor viability, 18-24 h; activity change, negative = cytotoxicity: at 46 µM (top of the series)", "from_the_text": "NIH Molecular Libraries Probe Production Network [MLPCN]\nNIH Chemical Genomics Center [NCGC]\nAssay Provider: Shyam Biswal, Johns Hopkins University\nNrf2 is a transcription factor that maintains cellular redox homoestasis and protects cells from xenobiotics. Nrf2 binds to the antioxidant response element (ARE) to induce gene expression of a broad spectrum of genes that encode for antioxidants. […] Finding a small molecule that act as an inhibitor of Nrf2 function would represent a novel therapeutic target that could lead to improvement in survival of patients undergoing chemo- and/or radio- therapy.\nSo here we implemented a counterscreen to weed out the cytotoxic compounds.\n1. Shibata, T., et al., Genetic Alteration of Keap1 Confers Constitutive Nrf2 Activation and Resistance to Chemotherapy in Gallbladder Cancer. Gastroenterology, 2008.\n2. Sjoblom, T., et al., The consensus coding sequences of human breast and colorectal cancers. Science, 2006. 314(5797): p. 268-74.\nNCGC Assay Protocol Summary:\nA concentration-response assay was performed with A549 ARE_Fluc cells which are suspended in 5% FBS OPTI-MEM. Five uL were dispensed into 1536-well white TC-treated plate using the Kalypsys dispenser to achieve a density of 5000 cells/well in all columns except column 1. The plate is incubated at 37deg C at 5% CO2 for 2 hours before 23 nL of compounds are added with the Kalypsys pin tool equipped with a 1,536-pin array containing 10-nL slotted pins (FP1S10, 0.457-mm diameter, 50.8 mm long; V&P Scientific). The control compounds Budesonide and Staurosporine are both added at a concentration of 2mM and Budesonide is also added as a 1:10 titration, starting at 200uM, to achieve dose-response. After an 18-24 hour incubation at 37deg C at 5% CO2, 5ul of medium is added to column 1. Afterwards 1ul of 5x of CellTiter-Fluor (Promega) is added to every well. The plate is then incubated at 37deg C at 5% CO2 for 30 minutes before they are read on the ViewLux (Perkin Elmer) for a fluorescent read Ex=405(10)/Em=525(10) for a 3 second exposure, 2x binning, and high gain. Then 3 uL of 3x BugLite is dispensed into all wells and the plate is incubated at ambient room temperature for 15 minutes. Afterwards another ViewLux read is performed using the clear filter to get a luminescent read with the settings of 40 second exposure, 2x binning, and high gain. Cytotoxicity is assessed through the first fluorescent read and then biochemical activity against Nrf2 is measured in the luminescent read.", "values": [
      {"smiles": "CCC1CCCCN1C(=O)CSc1nnc(-c2ccc(OC)c(OC)c2)o1", "note": "(stereo not given)", "activity change, negative = cytotoxicity": "inactive: -5.9%"},
      {"smiles": "CN(C(=O)c1cc([N+](=O)[O-])ccc1N1CCCC1)C1CCCCC1", "Potency": "inconclusive: 16.4 µM [falling, single point]"},
      {"smiles": "CC(C)(C)C1CCc2c(sc(NC(=O)c3noc4c3CCCC4)c2C#N)C1", "note": "(stereo not given)", "activity change, negative = cytotoxicity": "inactive: 0.614%"},
      {"smiles": "COc1ccccc1NC(=O)CSc1cn(CC(=O)N2CCCC2)c2ccccc12", "activity change, negative = cytotoxicity": "inactive: 1.75%"},
      {"smiles": "OCCN(Cc1nc(-c2ccc3c(c2)OCO3)no1)Cc1cccs1", "Potency": "inconclusive: 29.1 µM [activator, single point]"},
      {"smiles": "C=C(C)COc1ccc(-c2[nH]ncc2Oc2ccccc2OCC)c(O)c1", "Potency": "inconclusive: 29.1 µM [falling, partial curve, poor fit]"},
      {"smiles": "O=C(Nc1cccc(Cl)c1)Nc1cccc(Cl)c1", "Potency": "inconclusive: 16.4 µM [falling, partial curve, poor fit]"},
      {"smiles": "COc1ccc(Cl)cc1Nc1ccc2cc(S(=O)(=O)N3CCCCC3)ccc2n1", "activity change, negative = cytotoxicity": "inactive: -10.2%"},
      {"smiles": "Cc1c(C(=O)N2CCOCC2)[nH]c2c1C(=O)CC(c1ccccc1Cl)C2", "note": "(stereo not given)", "Potency": "inconclusive: 8.2 µM [falling, partial curve, poor fit]"},
      {"smiles": "Cc1noc2ncnc(Oc3ccccc3)c12", "activity change, negative = cytotoxicity": "inactive: -6.97%"},
      {"smiles": "CC(=O)c1ccc(NCC2COc3ccccc3O2)c([N+](=O)[O-])c1", "note": "(stereo not given)", "Potency": "inconclusive: 32.6 µM [falling, partial curve, poor fit]"},
      {"smiles": "COc1ccc(CC(=O)Nc2nc(-c3cc(OC)ccc3OC)cs2)cc1", "activity change, negative = cytotoxicity": "inactive: -20.2%"},
      {"smiles": "Cc1cc(OCC(=O)N2CCC(c3nc4ccccc4s3)CC2)ccc1Cl", "activity change, negative = cytotoxicity": "inactive: -12.9%"},
      {"smiles": "CCOc1ccc2[nH]c(=O)c(CN(CCO)C(=O)CC)cc2c1", "activity change, negative = cytotoxicity": "inactive: -3.68%"},
      {"smiles": "COc1cccc(-n2c(C)nc3cc(C(=O)O)ccc32)c1", "Potency": "inconclusive: 23.1 µM [activator, partial curve, poor fit]"},
      {"smiles": "CCOC(=O)CSc1nc2sc(C)c(C)c2c(=O)[nH]1", "activity change, negative = cytotoxicity": "inactive: -1.02%"},
      {"smiles": "CC(=O)Nc1ccc(/C=C/c2ccc3cccc([N+](=O)[O-])c3n2)cc1", "Potency": "inconclusive: 29.1 µM [falling, partial curve, poor fit]"},
      {"smiles": "CCC(=O)NC(c1ccc(C)cc1)c1ccc2cccnc2c1O", "note": "(stereo not given)", "Potency": "inconclusive: 25.9 µM [falling, partial curve, poor fit]"},
      {"smiles": "CN1CCN(c2ccc(NC(=O)c3ccc(-c4ccc(Br)cc4)o3)cc2)CC1", "Potency": "inconclusive: 29.1 µM [falling, single point]"},
      {"smiles": "CN(C)CCCN(C(=O)c1ccc2c(c1)OCCO2)c1nc2cc3c(cc2s1)OCO3", "Potency": "inconclusive: 23.1 µM [activator, partial curve, poor fit]"}
    ]}
  ]
}
